Measurements from the supplement of paper PMC7661543.
± gives the standard deviation of the averaged measurements. Differences between knockout arms are mostly noise.

System: MDA-MB-231
Assay: relative cell number vs DMSO control (72 h) (% of DMSO); higher = less growth inhibition (more cells)
Protocol: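 QMAP-Seq: a pool of 5 breast cancer cell lines (ZR-75-1, SKBR3, HCC-38, MDA-MB-231, BT-20), each carrying 12 doxycycline-inducible Cas9 sgRNA perturbations (11 knockouts plus non-targeting sgNT), was treated with compounds for 72 h at four 10-fold doses (10 nM-10 uM or 1 nM-1 uM range). Barcodes were amplified and sequenced, and cell number was interpolated from 293T spike-in standard curves. The result is expressed as % of the median of DMSO wells. Two biological replicates.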

[1] = sgRNA knockout: sgATF3, 1000 nM
[2] = sgRNA knockout: sgATF3, 10000 nM
[3] = sgRNA knockout: sgATF4, 1000 nM
[4] = sgRNA knockout: sgATF4, 10000 nM
[5] = sgRNA knockout: sgATF6, 1000 nM
[6] = sgRNA knockout: sgATF6, 10000 nM
[7] = sgRNA knockout: sgATG7, 1000 nM
[8] = sgRNA knockout: sgATG7, 10000 nM
[9] = sgRNA knockout: sgERN1, 1000 nM
[10] = sgRNA knockout: sgERN1, 10000 nM
[11] = sgRNA knockout: sgHSF1, 1000 nM
[12] = sgRNA knockout: sgHSF1, 10000 nM
[13] = sgRNA knockout: sgHSF2, 1000 nM
[14] = sgRNA knockout: sgHSF2, 10000 nM
[15] = sgRNA knockout: sgKEAP1, 100 nM
[16] = sgRNA knockout: sgKEAP1, 1000 nM
[17] = sgRNA knockout: sgKEAP1, 10000 nM
[18] = sgRNA knockout: sgNFE2L2, 10 nM
[19] = sgRNA knockout: sgNFE2L2, 100 nM
[20] = sgRNA knockout: sgNFE2L2, 1000 nM
[21] = sgRNA knockout: sgNFE2L2, 10000 nM
[22] = sgRNA knockout: sgSLC35F2, 10 nM
[23] = sgRNA knockout: sgSLC35F2, 100 nM
[24] = sgRNA knockout: sgSLC35F2, 1000 nM
[25] = sgRNA knockout: sgSLC35F2, 10000 nM
[26] = sgRNA knockout: sgXBP1, 1000 nM
[27] = sgRNA knockout: sgXBP1, 10000 nM

Work on OCCn1cc(-c2ccc3c(c2)CC/C3=N\O)c(-c2ccncc2)n1 [GDC0879] yielded a relative cell number (sgRNA knockout: sgATF3, 10 nM) of 94.4 ± 26, a relative cell number (sgRNA knockout: sgATF3, 100 nM) of 100 ± 31 and a relative cell number [1] of 100 ± 8.2. For the same molecule, the relative cell number [2] was 74.5 ± 7.8, the relative cell number (sgRNA knockout: sgATF4, 10 nM) was 104 ± 20 and the relative cell number (sgRNA knockout: sgATF4, 100 nM) was 98.8 ± 33. The relative cell number [3] was 136 ± 27, the relative cell number [4] was 112 ± 7.9 and the relative cell number (sgRNA knockout: sgATF6, 10 nM) was 98.047 ± 0.0079. The relative cell number (sgRNA knockout: sgATF6, 100 nM) was 100 ± 10, the relative cell number [5] was 107 ± 15 and the relative cell number [6] was 121 ± 6.9. The relative cell number (sgRNA knockout: sgATG7, 10 nM) was 106 ± 5.8, the relative cell number (sgRNA knockout: sgATG7, 100 nM) was 98.6 ± 8 and the relative cell number [7] was 93.9 ± 20. The relative cell number [8] was 89.6 ± 1.3, the relative cell number (sgRNA knockout: sgERN1, 10 nM) was 117 ± 10 and the relative cell number (sgRNA knockout: sgERN1, 100 nM) was 112 ± 7.3. It also gave a relative cell number [9] of 91.6 ± 26, a relative cell number [10] of 88.2 ± 4.6 and a relative cell number (sgRNA knockout: sgHSF1, 10 nM) of 99.2 ± 16. For the same molecule, the relative cell number (sgRNA knockout: sgHSF1, 100 nM) was 105 ± 11, the relative cell number [11] was 100 ± 6.6 and the relative cell number [12] was 106 ± 26. For the same molecule, the relative cell number (sgRNA knockout: sgHSF2, 10 nM) was 115 ± 3.1, the relative cell number (sgRNA knockout: sgHSF2, 100 nM) was 103 ± 11 and the relative cell number [13] was 104 ± 7.9. For the same molecule, the relative cell number [14] was 93.9 ± 10, the relative cell number (sgRNA knockout: sgKEAP1, 10 nM) was 98.3 ± 6.8 and the relative cell number [15] was 110 ± 12. The relative cell number [16] was 102 ± 0.69, the relative cell number [17] was 85.6 ± 5.1 and the relative cell number [18] was 87.7 ± 14. For the same molecule, the relative cell number [19] was 101 ± 20, the relative cell number [20] was 91 ± 19 and the relative cell number [21] was 72.2 ± 12. It also gave a relative cell number [22] of 122 ± 12, a relative cell number [23] of 109 ± 4.5 and a relative cell number [24] of 108 ± 36. For the same molecule, the relative cell number [25] was 84.8 ± 25, the relative cell number (sgRNA knockout: sgXBP1, 10 nM) was 95.8 ± 5.7 and the relative cell number (sgRNA knockout: sgXBP1, 100 nM) was 102.7 ± 0.3. The relative cell number [26] was 102 ± 2.5 and the relative cell number [27] was 85.2 ± 3.1.

In the case of C[C@@H]1CN(CC(=O)Nc2ccc3c(c2)Cc2cccc(-c4cc(=O)cc(N5CCOCC5)o4)c2S3)C[C@H](C)O1, the relative cell number (sgRNA knockout: sgATF3, 10 nM) is reported as 102 ± 8.1, the relative cell number (sgRNA knockout: sgATF3, 100 nM) is reported as 79.1 ± 7 and the relative cell number [1] is reported as 115 ± 3.8. It also gave a relative cell number [2] of 41.4 ± 9.6, a relative cell number (sgRNA knockout: sgATF4, 10 nM) of 98.6 ± 38 and a relative cell number (sgRNA knockout: sgATF4, 100 nM) of 90.5 ± 28. The relative cell number [3] was 128 ± 4, the relative cell number [4] was 49.4 ± 20 and the relative cell number (sgRNA knockout: sgATF6, 10 nM) was 90.5 ± 19. For the same molecule, the relative cell number (sgRNA knockout: sgATF6, 100 nM) was 82.1 ± 36, the relative cell number [5] was 81.3 ± 27 and the relative cell number [6] was 43 ± 6.2. The relative cell number (sgRNA knockout: sgATG7, 10 nM) was 106 ± 12, the relative cell number (sgRNA knockout: sgATG7, 100 nM) was 75.4 ± 17 and the relative cell number [7] was 77.1 ± 10. The relative cell number [8] was 43 ± 4.6, the relative cell number (sgRNA knockout: sgERN1, 10 nM) was 109 ± 34 and the relative cell number (sgRNA knockout: sgERN1, 100 nM) was 87 ± 1.4. The relative cell number [9] was 78.73 ± 0.098, the relative cell number [10] was 42.5 ± 14 and the relative cell number (sgRNA knockout: sgHSF1, 10 nM) was 99.7 ± 6.5. For the same molecule, the relative cell number (sgRNA knockout: sgHSF1, 100 nM) was 91.9 ± 4, the relative cell number [11] was 90.9 ± 13 and the relative cell number [12] was 43.5 ± 2.7. It also gave a relative cell number (sgRNA knockout: sgHSF2, 10 nM) of 102 ± 15, a relative cell number (sgRNA knockout: sgHSF2, 100 nM) of 118 ± 23 and a relative cell number [13] of 81 ± 15. The relative cell number [14] was 56.5 ± 3.5, the relative cell number (sgRNA knockout: sgKEAP1, 10 nM) was 96.4 ± 14 and the relative cell number [15] was 70.795 ± 0.059. It also gave a relative cell number [16] of 92 ± 6.9, a relative cell number [17] of 47.1 ± 1.2 and a relative cell number [18] of 76.5 ± 5. For the same molecule, the relative cell number [19] was 100 ± 8, the relative cell number [20] was 82.1 ± 5 and the relative cell number [21] was 42.9 ± 5.7. For the same molecule, the relative cell number [22] was 78.7 ± 6.9, the relative cell number [23] was 84.2 ± 5.5 and the relative cell number [24] was 107 ± 27. It also gave a relative cell number [25] of 44.7 ± 0.72, a relative cell number (sgRNA knockout: sgXBP1, 10 nM) of 99.3 ± 30 and a relative cell number (sgRNA knockout: sgXBP1, 100 nM) of 93.3 ± 16. For the same molecule, the relative cell number [26] was 94.2 ± 5.3 and the relative cell number [27] was 46.5 ± 17.
